{"source": "PubChem BioAssay AID686938 (Drosophila RNAi Screening Center, 2013)", "test": "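Fly genes required for calcium entry once internal stores are emptied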 (primary screen)", "system": "Drosophila S2R+ cells", "knock-down reagent": "long dsRNA against Drosophila genes, about 0.25 µg dsRNA per well, roughly 10,000 cells", "time to read-out": "5 days of knock-down before the calcium assay", "treatment": "thapsigargin (SERCA pump blocker) to empty calcium stores; entry signal taken 4 min after adding it", "measurement": "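Duplicate raw fluo-4 intensities per well from a plate reader, at rest and four minutes after thapsigargin emptied calcium stores; entry-to-rest ratio filled for only some wells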", "scale": "calcium entry signal: higher = stronger calcium signal after store depletion; entry to resting ratio: higher = more calcium entry relative to resting level; resting calcium signal: higher = higher resting calcium signal", "units": "calcium entry signal in fluorescence units; resting calcium signal in fluorescence units", "call rule": "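Called when the plate z-score of the entry-to-rest ratio, mean of duplicates, falls below −3; wells with low overall dye signal (Fmax z below −2) or more than five off-targets excluded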", "meaning of the calls": "active = strongly reduced calcium entry; inactive = no strong reduction", "note": "In all, the deposit lists about 23,000 reagents; shown is an unselected part of those that have a named target and a result. Over the whole deposit, 75 (0.33%) were called active. 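Raw plate signals without normalisation; calls rest on plate z-scores that were not deposited; ratio present for only 364 wells.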 Entries without a mark were called inactive. Not given: the dose of the treatment."}
{"Target gene": "CG15080", "dsRNA": "DRSC06511", "calcium entry signal, replicate 1": 4.80e7, "calcium entry signal, replicate 2": 4.17e7, "resting calcium signal, replicate 1": 1.93e7, "resting calcium signal, replicate 2": 1.98e7}
{"Target gene": "Cyp6v1", "dsRNA": "DRSC20565", "calcium entry signal, replicate 1": 4.89e7, "calcium entry signal, replicate 2": 5.37e7, "resting calcium signal, replicate 1": 2.68e7, "resting calcium signal, replicate 2": 2.44e7}
{"Target gene": "CG14423", "dsRNA": "DRSC17920", "calcium entry signal, replicate 1": 5.76e7, "calcium entry signal, replicate 2": 5.23e7, "entry to resting ratio": 1.9, "resting calcium signal, replicate 1": 2.99e7, "resting calcium signal, replicate 2": 2.33e7}
{"Target gene": "Gat", "dsRNA": "DRSC17144", "calcium entry signal, replicate 1": 6.15e7, "calcium entry signal, replicate 2": 5.52e7, "entry to resting ratio": 2.1, "resting calcium signal, replicate 1": 2.90e7, "resting calcium signal, replicate 2": 2.51e7}
{"Target gene": "nab", "dsRNA": "DRSC08455", "calcium entry signal, replicate 1": 3.68e7, "calcium entry signal, replicate 2": 3.41e7, "resting calcium signal, replicate 1": 1.85e7, "resting calcium signal, replicate 2": 1.44e7}
{"Target gene": "nab", "dsRNA": "DRSC08456", "calcium entry signal, replicate 1": 4.27e7, "calcium entry signal, replicate 2": 3.76e7, "resting calcium signal, replicate 1": 2.00e7, "resting calcium signal, replicate 2": 1.78e7}
{"Target gene": "Mabi", "dsRNA": "DRSC02489", "calcium entry signal, replicate 1": 4.67e7, "calcium entry signal, replicate 2": 2.16e7, "resting calcium signal, replicate 1": 1.97e7, "resting calcium signal, replicate 2": 1.12e7}
{"Target gene": "MtnB", "dsRNA": "DRSC22744", "calcium entry signal, replicate 1": 4.65e7, "calcium entry signal, replicate 2": 3.73e7, "resting calcium signal, replicate 1": 2.70e7, "resting calcium signal, replicate 2": 1.80e7}
{"Target gene": "ND-75", "dsRNA": "DRSC18686", "calcium entry signal, replicate 1": 3.58e7, "calcium entry signal, replicate 2": 5.07e7, "resting calcium signal, replicate 1": 1.59e7, "resting calcium signal, replicate 2": 2.15e7}
{"Target gene": "Dim1", "dsRNA": "DRSC00563", "calcium entry signal, replicate 1": 1.79e7, "calcium entry signal, replicate 2": 1.81e7, "resting calcium signal, replicate 1": 1.08e7, "resting calcium signal, replicate 2": 1.06e7}
{"Target gene": "Tmtc1", "dsRNA": "DRSC00147", "calcium entry signal, replicate 1": 3.96e7, "calcium entry signal, replicate 2": 4.53e7, "resting calcium signal, replicate 1": 2.04e7, "resting calcium signal, replicate 2": 2.05e7}
{"Target gene": "Tmtc1", "dsRNA": "DRSC00151", "calcium entry signal, replicate 1": 3.06e7, "calcium entry signal, replicate 2": 4.63e7, "resting calcium signal, replicate 1": 1.59e7, "resting calcium signal, replicate 2": 2.06e7}
{"Target gene": "Tmtc1", "dsRNA": "DRSC00314", "calcium entry signal, replicate 1": 3.89e7, "calcium entry signal, replicate 2": 6.04e7, "resting calcium signal, replicate 1": 1.81e7, "resting calcium signal, replicate 2": 2.43e7}
{"Target gene": "Tmtc1", "dsRNA": "DRSC00411", "calcium entry signal, replicate 1": 4.24e7, "calcium entry signal, replicate 2": 5.55e7, "resting calcium signal, replicate 1": 1.95e7, "resting calcium signal, replicate 2": 2.32e7}

A few values from the entries so far.
CG15080 [DRSC06511], calcium entry signal, replicate 2 = 4.17e7
ND-75 [DRSC18686], resting calcium signal, replicate 1: 1.59e7
